No constants are given. Whether binding was seen depends on the method and setting. In cells and extracts the contact can be indirect. Some results given as binding are weak or reduced against the parent protein; the word gives no strength. Sequences can lack the tags named with a protein.
T1: BAR2-YFP (C-terminal YFP fusion of the APPL2 minimal BAR domain, residues 18-225) (human) (UniProt Q8NEU8)
T1 sequence: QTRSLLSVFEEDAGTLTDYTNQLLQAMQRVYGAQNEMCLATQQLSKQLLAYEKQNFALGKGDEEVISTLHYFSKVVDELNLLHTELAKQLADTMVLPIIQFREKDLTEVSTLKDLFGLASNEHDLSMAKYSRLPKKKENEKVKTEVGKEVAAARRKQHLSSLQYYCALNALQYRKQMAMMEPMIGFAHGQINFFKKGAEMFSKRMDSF

T2: BAR1-YFP (C-terminal YFP fusion of the APPL1 minimal BAR domain, residues 18-226) (human) (UniProt Q9UKG1)
T2 sequence: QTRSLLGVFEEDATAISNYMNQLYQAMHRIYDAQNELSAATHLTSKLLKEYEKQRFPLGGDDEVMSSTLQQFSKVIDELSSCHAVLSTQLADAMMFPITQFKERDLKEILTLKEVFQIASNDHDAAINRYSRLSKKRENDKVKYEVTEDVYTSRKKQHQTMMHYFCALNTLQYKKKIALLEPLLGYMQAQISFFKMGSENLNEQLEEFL


Legend:
[1] = molecular target: T1, BAR2-YFP (C-terminal YFP fusion of the APPL2 minimal BAR domain, residues 18-225) (human); test: FRET or BRET; sensitized emission (NFRET) from pre-bleach emission spectra; CFP donor and YFP acceptor co-expressed in DLD-1 cells, fixed with 2% formaldehyde 24 h after transfection; confocal microscope with spectral detector
[2] = molecular target: T1, BAR2-YFP (C-terminal YFP fusion of the APPL2 minimal BAR domain, residues 18-225) (human); test: FRET or BRET; sequential acceptor photobleaching (20 images, linear regression to 100% YFP bleached); CFP donor and YFP acceptor co-expressed in DLD-1 cells, fixed
[3] = molecular target: T1, BAR2-YFP (C-terminal YFP fusion of the APPL2 minimal BAR domain, residues 18-225) (human); test: FRET or BRET; standard acceptor photobleaching (pre-bleach against final image after 19 bleach exposures, FRET efficiency %); CFP donor and YFP acceptor co-expressed in DLD-1 cells, fixed
[4] = molecular target: T1, BAR2-YFP (C-terminal YFP fusion of the APPL2 minimal BAR domain, residues 18-225) (human); test: FRET or BRET; comparison of pre-bleach and post-bleach emission spectra (lambda mode, same detector gain) in the bleached region; CFP donor and YFP acceptor co-expressed in DLD-1 cells, fixed
[5] = molecular target: T2, BAR1-YFP (C-terminal YFP fusion of the APPL1 minimal BAR domain, residues 18-226) (human); test: FRET or BRET; sensitized emission (NFRET) from pre-bleach emission spectra; CFP donor and YFP acceptor co-expressed in DLD-1 cells, fixed with 2% formaldehyde 24 h after transfection; confocal microscope with spectral detector
[6] = molecular target: T2, BAR1-YFP (C-terminal YFP fusion of the APPL1 minimal BAR domain, residues 18-226) (human); test: FRET or BRET; sequential acceptor photobleaching (20 images, linear regression to 100% YFP bleached); CFP donor and YFP acceptor co-expressed in DLD-1 cells, fixed
[7] = molecular target: T2, BAR1-YFP (C-terminal YFP fusion of the APPL1 minimal BAR domain, residues 18-226) (human); test: FRET or BRET; standard acceptor photobleaching (pre-bleach against final image after 19 bleach exposures, FRET efficiency %); CFP donor and YFP acceptor co-expressed in DLD-1 cells, fixed
[8] = molecular target: T2, BAR1-YFP (C-terminal YFP fusion of the APPL1 minimal BAR domain, residues 18-226) (human); test: FRET or BRET; comparison of pre-bleach and post-bleach emission spectra (lambda mode, same detector gain) in the bleached region; CFP donor and YFP acceptor co-expressed in DLD-1 cells, fixed

| binding [2] | binding [3] | binding [4] | binding [6] | binding [7] | binding [8] | Binder | binding [1] | binding [5] |
| --- | --- | --- | --- | --- | --- | --- | --- | --- |
| binds | binds | binds | – | – | – | CFP-BAR2 (N-terminal CFP fusion of the APPL2 minimal BAR domain, residues 18-225) (domain or fragment, UniProt Q8NEU8 18-225) QTRSLLSVFEEDAGTLTDYTNQLLQAMQRVYGAQNEMCLATQQLSKQLLAYEKQNFALGKGDEEVISTLHYFSKVVDELNLLHTELAKQLADTMVLPIIQFREKDLTEVSTLKDLFGLASNEHDLSMAKYSRLPKKKENEKVKTEVGKEVAAARRKQHLSSLQYYCALNALQYRKQMAMMEPMIGFAHGQINFFKKGAEMFSKRMDSF | binds | – |
| – | – | – | binds | binds | binds | CFP-BAR1 (N-terminal CFP fusion of the APPL1 minimal BAR domain, residues 18-226) (domain or fragment, UniProt Q9UKG1 18-226) QTRSLLGVFEEDATAISNYMNQLYQAMHRIYDAQNELSAATHLTSKLLKEYEKQRFPLGGDDEVMSSTLQQFSKVIDELSSCHAVLSTQLADAMMFPITQFKERDLKEILTLKEVFQIASNDHDAAINRYSRLSKKRENDKVKYEVTEDVYTSRKKQHQTMMHYFCALNTLQYKKKIALLEPLLGYMQAQISFFKMGSENLNEQLEEFL | – | binds |
